From article PMC9263130
Results are given in words; binding and its absence hold for the method and conditions named. Binding seen in cells or lysates may run through a third protein. A result given as binding can be weak or reduced; the word gives no strength.

By UniProt entry, the sequences of proteins in these tests, tags left out. Where a name states a change or a piece, a line headed by the entry shows the natural chain unless it says otherwise.
UniProt O60674: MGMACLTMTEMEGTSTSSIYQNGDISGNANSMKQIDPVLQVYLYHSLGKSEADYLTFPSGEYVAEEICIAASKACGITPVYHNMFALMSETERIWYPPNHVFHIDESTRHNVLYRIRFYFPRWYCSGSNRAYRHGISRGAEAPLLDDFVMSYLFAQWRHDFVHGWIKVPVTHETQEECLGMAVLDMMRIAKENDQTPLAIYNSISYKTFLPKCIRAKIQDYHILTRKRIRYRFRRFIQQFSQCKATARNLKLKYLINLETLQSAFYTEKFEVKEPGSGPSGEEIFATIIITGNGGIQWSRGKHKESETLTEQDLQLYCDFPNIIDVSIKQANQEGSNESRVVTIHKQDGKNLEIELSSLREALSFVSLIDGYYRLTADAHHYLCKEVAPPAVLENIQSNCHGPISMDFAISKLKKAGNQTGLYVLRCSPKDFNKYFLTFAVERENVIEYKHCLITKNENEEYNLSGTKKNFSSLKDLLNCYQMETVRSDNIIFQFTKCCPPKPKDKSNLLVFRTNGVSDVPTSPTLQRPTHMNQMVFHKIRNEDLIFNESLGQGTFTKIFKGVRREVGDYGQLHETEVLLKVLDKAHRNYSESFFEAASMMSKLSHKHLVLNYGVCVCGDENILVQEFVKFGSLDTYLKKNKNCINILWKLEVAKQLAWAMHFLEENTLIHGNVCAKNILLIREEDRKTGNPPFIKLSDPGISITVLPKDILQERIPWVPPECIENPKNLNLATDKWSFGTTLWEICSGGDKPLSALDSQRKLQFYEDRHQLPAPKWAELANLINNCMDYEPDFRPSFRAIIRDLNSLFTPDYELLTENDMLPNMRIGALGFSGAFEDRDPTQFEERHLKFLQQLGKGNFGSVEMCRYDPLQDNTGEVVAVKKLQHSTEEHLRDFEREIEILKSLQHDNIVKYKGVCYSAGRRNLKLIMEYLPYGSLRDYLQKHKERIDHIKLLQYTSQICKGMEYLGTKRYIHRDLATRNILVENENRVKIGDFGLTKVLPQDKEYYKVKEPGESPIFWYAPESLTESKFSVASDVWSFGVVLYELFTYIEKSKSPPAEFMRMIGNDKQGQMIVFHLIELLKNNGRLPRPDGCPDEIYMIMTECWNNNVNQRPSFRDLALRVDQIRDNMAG

Target: JAK2 (endogenous in HEL cells, which harbour the JAK2V617F mutation) (human (endogenous in HEL)) (UniProt O60674)
Assay: co-IP; HEL cells with 3 × Flag-CHST15 wild type or mutant; RIPA lysate, precleared with Protein A/G PLUS-agarose and control IgG; anti-JAK2 or anti-Flag-CHST15 antibody overnight at 4 °C; immunoblot

binding: binds
Substance: 3 × Flag-tagged mutant CHST15 (c.1367delG, p.Arg456fs) (from UniProt Q7LFX5-2)
